Hit rate of the full screen: of about 320,000 compounds, about 620 (0.19%) were called active. The inconclusive results got no clear call from the source; some entries with a clear call stand among them for comparison. The call rests on the fitted dose curve; in most records, active means well fitted activation curve with a large enough effect; inconclusive means small, poorly fitted or top-dose-only effect; inactive means no such curve, though single readings can be large or run the other way. Where the call is inconclusive, the potency comes from a doubtful curve fit.
Assay: qHTS Assay for Identifying a Potential Treatment of Ataxia-Telangiectasia; further: nearly all actives have a fitted effect of over 45% in size; on activation: % of control where 0% means no effect
Conditions: […] A-T fibroblasts, KAP-1 phosphorylation AlphaLISA, neocarzinostatin DNA damage 30 min before lysis; series mostly up to 57.5 µM; activation: at the top concentration
How it was run: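 ATM-like activity read as KAP-1 phosphorylation via AlphaLISA donor/acceptor antibody pairs after lysis and 6 hr at 25C. Cells were ATM-null patient fibroblasts ([…], hTERT), dosed 60 min, then exposed to the DSB inducer NCS for 30 min.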
Potency means the concentration at half of the fitted maximal effect.

Structure (SMILES)	Potency	activation
NS(=O)(=O)c1ccc(N2N=C(c3ccccc3)CC2c2ccc(F)cc2)cc1 (stereo not given)	inconclusive: 20 µM [activator, single point]	
CCSc1ccccc1-c1nc(-c2ccncc2)no1	inconclusive: 8.91 µM [activator, single point]	
O=C1CCCN1CN(C(=O)c1ccc2c(c1)OCO2)c1ccc(F)cc1	inconclusive: 31.6 µM [activator, partial curve]	
COc1ccc2c(C)c(C(=O)N3CCN(Cc4ccccc4)CC3)oc2c1	inconclusive: 17.8 µM [activator, partial curve]	
COc1ccc(NC(=O)CSc2nncn2C)cc1	inconclusive: 2.24 µM [activator, partial curve]	
O=C(c1cccc2ccccc12)C1CCCN(C(=O)CCN2CCCO2)C1 (stereo not given)	inconclusive: 8.91 µM [activator, partial curve]	
CC1CN(Cc2cc(=O)[nH]c(C(C)C)n2)CC(C)O1 (stereo not given)	inconclusive: 6.31 µM [activator, single point]	
CCOC(=O)N1CCC(N2C(=O)c3ccccc3C2Nc2ccc3c(C)cc(=O)oc3c2)CC1 (stereo not given)	active: 39.8 µM	
Cc1cc(C(=O)CSc2cccc[n+]2[O-])c(C)n1-c1ccc(OC(F)F)cc1	inconclusive: 15.8 µM [activator, partial curve, poor fit]	
COc1ccc(-c2cc3c(=O)n(CC(=O)N4CCCC4)ncn3n2)cc1		inactive: -6.79%
Cc1ccc(C(=O)N/C(=C\c2ccc(-c3ccccc3[N+](=O)[O-])o2)C(=O)NCCCN2CCOCC2)cc1	inconclusive: 7.08 µM [activator, single point]	
NC(=O)c1c[nH]c2ccccc12	inconclusive: 0.631 µM [activator, partial curve, poor fit]	
Cc1nn(-c2ccccc2)c(Cl)c1/C=N/NC(=O)CCNc1n[nH]c(=O)[nH]c1=O	active: 20 µM	
Cn1c(=O)c2c(nc(CN3CCN(c4ccc(F)cc4)CC3)n2Cc2ccccc2F)n(C)c1=O	inconclusive: 31.6 µM [activator, single point]	
COc1cccc(C2CN(c3ccc(F)cc3F)N=C2c2cccs2)c1OC (stereo not given)	active: 28.2 µM	
CCN(CC(O)CON=C1c2ccccc2-c2ccccc21)S(=O)(=O)c1ccc(Cl)cc1 (stereo not given)		inactive: 6.04%
N#Cc1cc2c(nc1SCc1cccnc1)CCCC2	inconclusive: 39.8 µM [activator, single point]	
COc1ccc(-c2sc3ccccc3c2C#Cc2cncn2C)cc1	active: 31.6 µM	
O=C(O)c1nc(NCc2ccccc2)ncc1Cl	inconclusive: 10 µM [activator, partial curve, poor fit]	
Cc1nnc(N/N=C/c2ccccc2O)n1N	inconclusive: 35.5 µM [activator, single point]	
O=C1c2cccc3c(O)ccc(c23)C(=O)N1c1ccc(Cl)cc1	inconclusive: 0.708 µM [activator, full curve, poor fit]	
CCN1CCN(c2nc3c(C)cccn3c(=O)c2/C=C(\C#N)C(=O)NCCOC)CC1		inactive: 0%
c1ccc(CCc2ccccc2-c2nc(-c3cccnc3)no2)cc1	active: 39.8 µM	
O=C(CSCc1ccccc1)Nc1ccc(S(=O)(=O)N2CCOCC2)cc1	inconclusive: 7.08 µM [activator, single point]	
Cc1cccc(-n2ncc3c(N4CCC5(CC4)OCCO5)ncnc32)c1	inconclusive: 39.8 µM [activator, single point]	

Structure (SMILES)	Potency	activation
COC(=O)c1cc(OCC(=O)Nc2ccc3c(c2)CCC3)cc(C(=O)OC)c1	inconclusive: 31.6 µM [activator, single point]	
Clc1ccccc1/C=C/c1nc(-c2cccnc2)no1		inactive: 10.3%
CC(=O)Nc1ccc(S(=O)(=O)NCCC(=O)OCc2csc(CC(=O)Nc3ccccc3C)n2)cc1		inactive: 2.3%
Nc1ccn(-c2ccc(Cl)cc2)c(=O)c1	inconclusive: 39.8 µM [activator, partial curve, poor fit]	
O=S(=O)(Cc1cc(Oc2ccccc2)nc(-c2ccccc2)n1)c1ccccc1	inconclusive: 10 µM [activator, full curve, poor fit]	
O=C1N=c2ccccc2=C1c1sc(=S)n(-c2ccc(O)cc2)c1O		inactive: -5.92%
COc1ccc(/C=C2\Cc3ccccc3C2=O)cc1OC		inactive: 4.92%
O=C(Cc1ccccc1)Nc1ccccc1Sc1ccccc1	inconclusive: 25.1 µM [activator, partial curve, poor fit]	
CCSc1nnc(NC(=O)COc2ccccc2[N+](=O)[O-])s1		inactive: -3%
CCN(CC)CCCNC(=O)c1cn(CC(C)C)c(=O)c2c1c1ccccc1n2C	inconclusive: 39.8 µM [activator, single point]	
COc1ccc(-c2cnc(OC(C)(C)C)nc2OC(C)(C)C)cc1OC	inconclusive: 39.8 µM [activator, single point]	
Cc1ccc(C)c(NC(=O)c2ccc(OCc3c(C)noc3C)cc2)c1		inactive: 3.85%
COC(=O)c1cc(S(=O)(=O)NCC2CCN(Cc3ccccc3F)CC2)c[nH]1		inactive: 5.16%
Oc1ccccc1C1=NN(c2ccccc2)C(c2ccccc2)C1 (stereo not given)	inconclusive: 25.1 µM [activator, single point]	
Cc1ccc(NC(=O)CSCc2c(C)noc2C)cc1C	inconclusive: 39.8 µM [activator, single point]	
Cn1ncc(Cl)c1C(=O)N1CCN(C23CC4CC(CC(C4)C2)C3)CC1	inconclusive: 39.8 µM [activator, single point]	
Cc1onc(-c2c(F)cccc2Cl)c1C(=O)N1CCN(S(C)(=O)=O)CC1	inconclusive: 0.631 µM [activator, partial curve, poor fit]	
CN(C)CCCNS(=O)(=O)c1ccc(N2CCC(c3ccc(Cl)cc3)=N2)cc1	inconclusive: 35.5 µM [activator, partial curve]	
CCOC(=O)C(=NC1CCCCC1)NNc1cccc(C(F)(F)F)c1	inconclusive: 39.8 µM [activator, single point]	
CC[n+]1ccccc1/C=C1\Sc2ccc(C)cc2N1C		inactive: -19.1%
NC(=O)COC(=O)C1c2ccccc2Oc2ccccc21	inconclusive: 3.55 µM [activator, single point]	
CCn1cc(C(=O)OCC(=O)N2C(C)CCCC2C)c(=O)c2ccc(C)nc21 (stereo not given)	inconclusive: 12.6 µM [activator, partial curve]	
COc1cccc(NC(=O)NC2(C(=O)N3CCN(C)CC3)CCCCC2)c1		inactive: 5.44%
COCCN(C(=O)CSc1cc(C)c2ccccc2n1)c1c(N)n(CC(C)C)c(=O)[nH]c1=O	inconclusive: 7.08 µM [activator, single point]	
CCC(=O)c1ccc(N2CCN(C(=O)c3cccs3)CC2)c(F)c1		inactive: -0.123%

Part of the list above in order of molecular weight, falling:
Structure (SMILES)	Potency	activation
COC(=O)c1cc(S(=O)(=O)NCC2CCN(Cc3ccccc3F)CC2)c[nH]1		inactive: 5.16%
COc1ccc(-c2cnc(OC(C)(C)C)nc2OC(C)(C)C)cc1OC	inconclusive: 39.8 µM [activator, single point]	
CCOC(=O)C(=NC1CCCCC1)NNc1cccc(C(F)(F)F)c1	inconclusive: 39.8 µM [activator, single point]	

Later entries

Structure (SMILES)	Potency	activation
Cc1ccc(OCC(=O)N(Cc2cccs2)C2CCS(=O)(=O)C2)cc1C (stereo not given)	active: 2.24 µM	
Cc1cccc(N/N=C/c2ccccc2O)c1		inactive: 5.13%
CC(=O)Nc1ccc(S(=O)(=O)NNC(=O)COc2ccc(C(C)(C)C)cc2)cc1	inconclusive: 1.26 µM [activator, full curve, poor fit]	
O=C(NCC(Cl)c1ccc2ccccc2c1)c1c(F)cccc1F (stereo not given)	active: 20 µM	
CCOc1ccc(N2CC(C(=O)Nc3ccc(F)cc3F)CC2=O)cc1 (stereo not given)	inconclusive: 31.6 µM [activator, partial curve]	
Clc1ccc2c(c1)[C@H]1OCC[C@H]1[C@@H](c1ccco1)N2		inactive: -1.4%
Cc1cc2nc(-c3ccc[nH]c3=O)[nH]c2cc1C	inconclusive: 39.8 µM [activator, single point]	
COC(=O)c1ccc(N2CCN(C)CC2)c(NC(=O)c2ccc(Br)o2)c1		inactive: -1.5%
Cn1c(=O)[nH]c(=O)c2c1nc(NCCN)n2CCOc1ccccc1	inconclusive: 39.8 µM [activator, partial curve, poor fit]	
COc1ccc(-c2nn(-c3ccccc3)cc2/C=C/C(=O)O)cc1[N+](=O)[O-]	inconclusive: 0.631 µM [activator, full curve, poor fit]	
COc1ccc(C(=O)CSc2nc3ncccc3[nH]2)cc1OC	active: 0.794 µM	
CCCCCCCCC[n+]1cccc2c3ccccc3ccc21		inactive: -4.76%
CCOC(=O)c1c(-c2ccc(C)cc2)cn2ccccc12	active: 31.6 µM	
CCN(CC)S(=O)(=O)c1cc(NC(=O)CNc2cccc(S(=O)(=O)N3CCOCC3)c2)ccc1C		inactive: 3.89%
COc1ccc(NC(=O)c2cc(-c3ccccc3O)n[nH]2)cc1Cl		inactive: 36.7%
O=C(CSc1nc(C(F)(F)F)cc(=O)[nH]1)NCc1ccc2c(c1)OCO2		inactive: 6.45%
CC1CCc2c(sc(NC(=O)C3=COCCO3)c2C(N)=O)C1 (stereo not given)	inconclusive: 3.16 µM [activator, full curve, poor fit]	
CCOC(=O)N1CCN(/C=C(\C#N)c2nc3ccccc3s2)CC1		inactive: 3.42%
O=C1c2ccccc2-c2nc3ccccc3cc21		inactive: 5.71%
CC(=O)c1cccc(OCc2cc(C(=O)NCCC3=CCCCC3)no2)c1		inactive: 1.26%
Cc1cc(C)n(-c2n[nH]c(=O)c3ccccc23)n1	active: 17.8 µM	
CC(C)(C)C(=O)O/N=C(\N)c1ccc([N+](=O)[O-])s1	inconclusive: 7.08 µM [activator, single point]	
Cc1cc(Sc2nc(N)ncc2[N+](=O)[O-])ncn1		inactive: -21.5%
c1coc(CN2CNc3nc4ccccc4n3C2)c1	active: 10 µM	
C=CCc1ccc(OCC(O)CN2CCN(c3ccccc3)CC2)c(OC)c1 (stereo not given)	active: 20 µM	

Source: PubChem BioAssay AID485349 (National Center for Advancing Translational Sciences (NCATS), 2010)
